The other results are listed elsewhere or left out. Further columns of the screen follow, without active or inactive calls. Compounds called inactive in the main read-out are mostly missing here. Words in brackets tell the shape of the fitted curve; partial curves, single points and poor fits give uncertain potencies.

The assay is described as follows: qHTS Assay for Lipid Storage Modulators in Drosophila S3 Cells.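 As to cell number change: cells counted by Cell Tracker Red CMTPX staining in the red channel.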 The conditions noted are these: BODIPY lipid droplet fluorescence, 18-24 h; for cell number change: measured here: cell count max response, cells fed with added oleic acid. The procedure, abridged: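 Laser-scanning cytometry quantifies lipid droplet accumulation (500–530 nm total intensity; droplet/cell object ratio) in oleic acid-fed (400 uM added) Drosophila S3 cells treated with a concentration series. 20 uM Triacsin C defined 100% inhibition.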
(qHTS replaces the single test concentration by a dilution series.)

Setting [1] is: measured here: lipid fluorescence (Fed channel) AC50, cells fed with added oleic acid.
The mark [2] stands for this setting: measured here: cell number channel AC50, cells fed with added oleic acid.

`COc1ccc(-c2cc3c(=O)n(CC(=O)NC4CCN(Cc5ccccc5)CC4)ncn3n2)cc1`: the cell number change turned out to be 1.27%. Besides, the AC50 under setting [1] is 731 nM [falling, full curve].

Consider `N=c1c(C(=O)NCCc2ccccc2)cc2c(=O)n3ccccc3nc2n1CCCN1CCOCC1`, for which the AC50 under setting [1] was 731 nM [falling, full curve, poor fit].

Turning to `O=C(Oc1ccc2c3c(c(=O)oc2c1)CCCC3)c1cccs1`, the cell number change is -19.3%. In addition, the AC50 under setting [2] is 517 nM [falling, full curve]. Further, the concentration at half-maximal activity (AC50) under setting [1] is 580 nM [falling, single point].

For `COC(=O)/C(=C/Nc1ccccc1)[N+](=O)[O-]`, the cell number change was -30.6%. Under setting [2], the AC50 is 6510 nM [falling, partial curve, poor fit]. Further, the AC50 under setting [1] was 2060 nM [falling, partial curve].

Consider `COC(=O)c1c(C)oc2c1cc(NS(=O)(=O)c1cccs1)c1ccccc12`, for which the cell number change turned out to be 48.2%. Also, the concentration at half-maximal activity (AC50) under setting [2] is 1030 nM [rising, full curve]. Besides, the AC50 under setting [1] was 7310 nM [rising, partial curve].

Take `CC1(C)Cc2ccccc2-c2nc3n(c(=O)c21)CCCS3`: the cell number change was -41.5%. The half-maximal activity concentration (AC50) under setting [2] is 20600 nM [falling, single point].

`O=C(NC(=S)N1CCOCC1)c1cc2ccccc2o1`: the cell number change worked out at 38.3%.

As to `C/C(=N/N=C(\C)c1ccccc1O)c1ccccc1O`, the cell number change was found to be 19.4%. Also, the AC50 under setting [2] was 6510 nM [rising, single point].

As for `Cc1c(C(=O)c2cccc(F)c2)c2ccccn2c1CCC#N`, the cell number change was found to be 33.4%. In addition, the AC50 under setting [2] is 920 nM [rising, full curve, poor fit]. Moreover, the half-maximal activity concentration (AC50) under setting [1] is 206 nM [rising, full curve, poor fit].

Regarding `O=C(Nc1ccc2c(c1)OCO2)c1ccc(N2CCCC2)c([N+](=O)[O-])c1`, the cell number change is -14.9%.

With `COc1ccc(CCNC(=O)c2c(O)c3cccc4c3n(c2=O)CC4)cc1`, the cell number change was determined as 43.7%.

In the case of `CCOc1ccc(NC(=O)NC2(C(=O)NCc3ccco3)CCCCC2)cc1`, the cell number change is -15.2%. In addition, under setting [1], the AC50 was 4.61 nM [falling, full curve, poor fit].

For the compound `CCOc1ccc(C(=O)NCc2ccncc2)cc1OCC`, the cell number change was determined as 3.82%. The AC50 under setting [1] was 651 nM [rising, full curve].

With `COCCN(CC(=O)Nc1cccc(C)c1C)C(=O)Cn1c(=O)cnc2ccccc21`, the cell number change was found to be 15.9%. The half-maximal activity concentration (AC50) under setting [1] is 25.9 nM [rising, full curve, poor fit].

On to `Cc1cccc(C)c1NC(=O)CN(c1ccccn1)S(=O)(=O)c1ccccc1`, for which the cell number change was 43.8%. In addition, the AC50 under setting [2] is 11600 nM [rising, partial curve, poor fit]. Besides, under setting [1], the AC50 is 29100 nM [rising, single point].

For `Cc1noc(C)c1CSCC(=O)Oc1ccc(N(C)S(=O)(=O)c2ccc(Cl)cc2)cc1`, the cell number change is -4.62%.

As usually defined, the AC50 is the concentration at which the activity in the assay is half-maximal. A lower AC50 goes with activity at low concentration.

(Values after PubChem BioAssay AID2685 (National Center for Advancing Translational Sciences (NCATS), 2010).)
